Among the data in publication PMC7693736 are binding values, retold here.

No constants are given. Whether binding was seen depends on the method and setting. In cells and extracts the contact can be indirect. These calls come from enrichment with a bait or labelling near it, and not all partners need be listed.

This test addresses Flag-Beclin 1-HA, Q14457. The experiment in a line: affinity purification with mass spectrometry; Flag-Beclin 1-HA from 293 cells treated with PBS or empagliflozin (200 nM, 18 h); lysis in 25 mM Tris pH 7.4, 150 mM NaCl, 1% NP-40, 1 mM EDTA, 5% glycerol; sequential anti-Flag M2 agarose and anti-HA agarose with peptide elution; bands from a SYPRO Ruby stained gel analysed by mass spectrometry. To be noted: remark: other sources report otherwise.

B1: Autophagy and Beclin 1 Regulator 1 (AMBRA1), endogenous in 293 cells, Q9C0C7 1-1298 (protein)
chain: MKVVPEKNAVRILWGRERGARAMGAQRLLQELVEDKTRWMKWEGKRVELPDSPRSTFLLAFSPDRTLLASTHVNHNIYITEVKTGKCVHSLIGHRRTPWCVTFHPTISGLIASGCLDGEVRIWDLHGGSESWFTDSNNAIASLAFHPTAQLLLIATANEIHFWDWSRREPFAVVKTASEMERVRLVRFDPLGHYLLTAIVNPSNQQGDDEPEIPIDGTELSHYRQRALLQSQPVRRTPLLHNFLHMLSSRSSGIQVGEQSTVQDSATPSPPPPPPQPSTERPRTSAYIRLRQRVSYPTAECCQHLGILCLCSRCSGTRVPSLLPHQDSVPPASARATTPSFSFVQTEPFHPPEQASSTQQDQGLLNRPSAFSTVQSSTAGNTLRNLSLGPTRRSLGGPLSSHPSRYHREIAPGLTGSEWTRTVLSLNSRSEAESMPPPRTSASSVSLLSVLRQQEGGSQASVYTSATEGRGFPASGLATESDGGNGSSQNNSGSIRHELQCDLRRFFLEYDRLQELDQSLSGEAPQTQQAQEMLNNNIESERPGPSHQPTPHSSENNSNLSRGHLNRCRACHNLLTFNNDTLRWERTTPNYSSGEASSSWQVPSSFESVPSSGSQLPPLERTEGQTPSSSRLELSSSASPQEERTVGVAFNQETGHWERIYTQSSRSGTVSQEALHQDMPEESSEEDSLRRRLLESSLISLSRYDGAGSREHPIYPDPARLSPAAYYAQRMIQYLSRRDSIRQRSMRYQQNRLRSSTSSSSSDNQGPSVEGTDLEFEDFEDNGDRSRHRAPRNARMSAPSLGRFVPRRFLLPEYLPYAGIFHERGQPGLATHSSVNRVLAGAVIGDGQSAVASNIANTTYRLQWWDFTKFDLPEISNASVNVLVQNCKIYNDASCDISADGQLLAAFIPSSQRGFPDEGILAVYSLAPHNLGEMLYTKRFGPNAISVSLSPMGRYVMVGLASRRILLHPSTEHMVAQVFRLQQAHGGETSMRRVFNVLYPMPADQRRHVSINSARWLPEPGLGLAYGTNKGDLVICRPEALNSGVEYYWDQLNETVFTVHSNSRSSERPGTSRATWRTDRDMGLMNAIGLQPRNPATSVTSQGTQTLALQLQNAETQTEREVPEPGTAASGPGEGEGSEYGASGEDALSRIQRLMAEGGMTAVVQREQSTTMASMGGFGNNIIVSHRIHRSSQTGTEPGAAHTSSPQPSTSRGLLPEAGQLAERGLSPRTASWDQPGTPGREPTQPTLPSSSPVPIPVSLPSAEGPTLHCELTNNNHLLDGGSSRGDAAGPRGEPRNR
Regarding B1, the binding result is “binds”.
